The source of these data is PMC6395391.

Amino acid sequences for entries named in this document (tags omitted).
UniProt P24385: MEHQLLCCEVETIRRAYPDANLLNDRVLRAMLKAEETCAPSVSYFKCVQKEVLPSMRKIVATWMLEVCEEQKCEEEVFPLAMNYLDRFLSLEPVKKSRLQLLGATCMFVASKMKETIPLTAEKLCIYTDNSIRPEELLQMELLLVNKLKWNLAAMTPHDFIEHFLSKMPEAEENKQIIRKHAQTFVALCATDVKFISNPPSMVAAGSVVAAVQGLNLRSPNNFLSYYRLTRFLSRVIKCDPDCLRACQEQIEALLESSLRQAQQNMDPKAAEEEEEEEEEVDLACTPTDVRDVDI

In test [1] the target is T1, HA-OGT (O-GlcNAc transferase) (UniProt O15294).
T1 sequence: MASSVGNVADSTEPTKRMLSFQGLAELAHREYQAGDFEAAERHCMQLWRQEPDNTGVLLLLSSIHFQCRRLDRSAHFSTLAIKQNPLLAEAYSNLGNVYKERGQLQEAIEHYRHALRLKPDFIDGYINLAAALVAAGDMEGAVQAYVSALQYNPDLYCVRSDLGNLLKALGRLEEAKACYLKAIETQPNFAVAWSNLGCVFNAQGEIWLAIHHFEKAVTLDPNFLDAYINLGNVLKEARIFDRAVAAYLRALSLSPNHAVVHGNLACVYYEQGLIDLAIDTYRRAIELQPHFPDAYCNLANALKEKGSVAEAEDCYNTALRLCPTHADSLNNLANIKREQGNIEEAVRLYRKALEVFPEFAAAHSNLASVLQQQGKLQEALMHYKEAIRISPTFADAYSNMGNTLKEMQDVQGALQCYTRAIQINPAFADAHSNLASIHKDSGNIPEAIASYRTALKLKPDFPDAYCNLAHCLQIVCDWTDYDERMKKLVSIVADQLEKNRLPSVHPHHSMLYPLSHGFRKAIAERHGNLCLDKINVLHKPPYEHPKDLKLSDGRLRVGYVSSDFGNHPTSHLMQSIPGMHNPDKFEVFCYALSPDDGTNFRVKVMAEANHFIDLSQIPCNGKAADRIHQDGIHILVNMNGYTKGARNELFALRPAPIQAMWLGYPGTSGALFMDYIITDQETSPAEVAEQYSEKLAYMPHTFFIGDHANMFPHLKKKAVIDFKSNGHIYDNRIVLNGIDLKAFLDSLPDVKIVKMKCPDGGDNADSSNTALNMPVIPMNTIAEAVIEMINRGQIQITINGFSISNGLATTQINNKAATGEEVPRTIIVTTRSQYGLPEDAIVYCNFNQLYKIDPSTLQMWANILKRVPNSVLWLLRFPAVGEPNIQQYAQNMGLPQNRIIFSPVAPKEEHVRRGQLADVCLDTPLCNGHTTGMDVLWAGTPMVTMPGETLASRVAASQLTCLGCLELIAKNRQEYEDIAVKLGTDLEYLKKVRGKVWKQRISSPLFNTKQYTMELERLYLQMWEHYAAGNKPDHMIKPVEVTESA
The test can be described thus: co-IP; HEK293T cells co-transfected with HA-OGT and Myc-cyclin D1 for 48 h (non-transfected cells as a further lane); lysis in RIPA without SDS; IP with anti-cyclin D1 or anti-OGT antibody and protein A/G beads; washes three times in RIPA and once in RIPA with 450 mM NaCl; blots for OGT, OGA and cyclin D1; non-relevant IgG as negative control.

For test [2], the target named is Myc-cyclin D1 (human) (UniProt P24385). The description is as above.
Test [3] addresses cyclin D1 (endogenous, MCF7) (human (endogenous in MCF7)) (UniProt P24385). In words: proximity ligation; in situ PLA (Duolink) on fixed MCF7 cells with antibodies against cyclin D1 (A12) and OGT (Ti-14); quiescent cells (0) and 6 h, 15 h, 21 h after serum stimulation; confocal microscopy.
Test [4] concerns the target cyclin D1 (endogenous, HCT116) (human (endogenous in HCT116)) (UniProt P24385). In words: co-IP; endogenous proteins of HCT116 cells, treated overnight with DMSO or ThG (1 uM); IP of endogenous cyclin D1 and OGT; blots with OGT and cycD1 antibodies.
The target of test [5] is T2, O-GlcNAc transferase (OGT) (endogenous, HEK293T) (human (endogenous in HEK293T)) (UniProt O15294).
T2 sequence: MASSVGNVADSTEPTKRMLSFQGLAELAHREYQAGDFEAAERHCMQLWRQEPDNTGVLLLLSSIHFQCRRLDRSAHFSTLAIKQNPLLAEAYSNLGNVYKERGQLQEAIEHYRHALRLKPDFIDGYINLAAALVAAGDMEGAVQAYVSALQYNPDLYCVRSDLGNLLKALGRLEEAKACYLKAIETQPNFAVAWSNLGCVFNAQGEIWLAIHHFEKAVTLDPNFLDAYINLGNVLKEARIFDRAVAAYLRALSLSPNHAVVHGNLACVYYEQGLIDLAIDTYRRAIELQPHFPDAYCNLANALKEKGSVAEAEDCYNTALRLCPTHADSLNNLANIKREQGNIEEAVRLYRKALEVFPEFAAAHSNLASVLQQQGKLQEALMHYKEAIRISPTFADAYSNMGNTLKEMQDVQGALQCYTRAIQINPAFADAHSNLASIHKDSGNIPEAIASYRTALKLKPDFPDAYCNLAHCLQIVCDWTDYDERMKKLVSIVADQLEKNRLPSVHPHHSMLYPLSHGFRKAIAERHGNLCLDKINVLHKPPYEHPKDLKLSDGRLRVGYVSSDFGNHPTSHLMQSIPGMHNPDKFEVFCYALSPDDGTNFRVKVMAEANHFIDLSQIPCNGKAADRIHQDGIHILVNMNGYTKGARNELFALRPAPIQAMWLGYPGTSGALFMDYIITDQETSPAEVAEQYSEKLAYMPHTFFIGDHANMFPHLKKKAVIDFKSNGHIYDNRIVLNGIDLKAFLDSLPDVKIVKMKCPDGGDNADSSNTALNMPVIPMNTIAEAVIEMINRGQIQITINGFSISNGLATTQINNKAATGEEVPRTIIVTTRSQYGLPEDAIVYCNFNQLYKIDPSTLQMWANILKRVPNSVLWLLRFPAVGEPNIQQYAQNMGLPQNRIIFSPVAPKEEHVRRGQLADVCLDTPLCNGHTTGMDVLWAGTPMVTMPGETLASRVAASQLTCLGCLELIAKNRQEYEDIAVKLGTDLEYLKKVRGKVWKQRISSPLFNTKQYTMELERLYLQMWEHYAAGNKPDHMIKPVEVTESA
The test can be described thus: co-IP; HEK293T cells co-transfected with HA-OGT and Myc-cyclin D1 for 48 h (non-transfected cells as a further lane); lysis in RIPA without SDS; IP with anti-cyclin D1 or anti-OGT antibody and protein A/G beads; washes three times in RIPA and once in RIPA with 450 mM NaCl; blots for OGT, OGA and cyclin D1; non-relevant IgG as negative control.

These are yes or no findings as the source states them, for the method shown. In cells and extracts the contact can be indirect. Some entries that bind do so weakly or less than the wild type. For some of these results: Where a sequence is shown, tags or fusion partners need not be part of it.

As to “Myc-cyclin D1 (from UniProt P24385 1-295)”, the binding entry in test [1] was “binds”.

B1: HA-OGT (O-GlcNAc transferase) (enzyme, UniProt O15294 1-1046)
chain: MASSVGNVADSTEPTKRMLSFQGLAELAHREYQAGDFEAAERHCMQLWRQEPDNTGVLLLLSSIHFQCRRLDRSAHFSTLAIKQNPLLAEAYSNLGNVYKERGQLQEAIEHYRHALRLKPDFIDGYINLAAALVAAGDMEGAVQAYVSALQYNPDLYCVRSDLGNLLKALGRLEEAKACYLKAIETQPNFAVAWSNLGCVFNAQGEIWLAIHHFEKAVTLDPNFLDAYINLGNVLKEARIFDRAVAAYLRALSLSPNHAVVHGNLACVYYEQGLIDLAIDTYRRAIELQPHFPDAYCNLANALKEKGSVAEAEDCYNTALRLCPTHADSLNNLANIKREQGNIEEAVRLYRKALEVFPEFAAAHSNLASVLQQQGKLQEALMHYKEAIRISPTFADAYSNMGNTLKEMQDVQGALQCYTRAIQINPAFADAHSNLASIHKDSGNIPEAIASYRTALKLKPDFPDAYCNLAHCLQIVCDWTDYDERMKKLVSIVADQLEKNRLPSVHPHHSMLYPLSHGFRKAIAERHGNLCLDKINVLHKPPYEHPKDLKLSDGRLRVGYVSSDFGNHPTSHLMQSIPGMHNPDKFEVFCYALSPDDGTNFRVKVMAEANHFIDLSQIPCNGKAADRIHQDGIHILVNMNGYTKGARNELFALRPAPIQAMWLGYPGTSGALFMDYIITDQETSPAEVAEQYSEKLAYMPHTFFIGDHANMFPHLKKKAVIDFKSNGHIYDNRIVLNGIDLKAFLDSLPDVKIVKMKCPDGGDNADSSNTALNMPVIPMNTIAEAVIEMINRGQIQITINGFSISNGLATTQINNKAATGEEVPRTIIVTTRSQYGLPEDAIVYCNFNQLYKIDPSTLQMWANILKRVPNSVLWLLRFPAVGEPNIQQYAQNMGLPQNRIIFSPVAPKEEHVRRGQLADVCLDTPLCNGHTTGMDVLWAGTPMVTMPGETLASRVAASQLTCLGCLELIAKNRQEYEDIAVKLGTDLEYLKKVRGKVWKQRISSPLFNTKQYTMELERLYLQMWEHYAAGNKPDHMIKPVEVTESA
For B1, the binding result in test [2] is “binds”.

B2: O-GlcNAc transferase (OGT) (endogenous, MCF7) (enzyme, UniProt O15294 1-1046)
chain: MASSVGNVADSTEPTKRMLSFQGLAELAHREYQAGDFEAAERHCMQLWRQEPDNTGVLLLLSSIHFQCRRLDRSAHFSTLAIKQNPLLAEAYSNLGNVYKERGQLQEAIEHYRHALRLKPDFIDGYINLAAALVAAGDMEGAVQAYVSALQYNPDLYCVRSDLGNLLKALGRLEEAKACYLKAIETQPNFAVAWSNLGCVFNAQGEIWLAIHHFEKAVTLDPNFLDAYINLGNVLKEARIFDRAVAAYLRALSLSPNHAVVHGNLACVYYEQGLIDLAIDTYRRAIELQPHFPDAYCNLANALKEKGSVAEAEDCYNTALRLCPTHADSLNNLANIKREQGNIEEAVRLYRKALEVFPEFAAAHSNLASVLQQQGKLQEALMHYKEAIRISPTFADAYSNMGNTLKEMQDVQGALQCYTRAIQINPAFADAHSNLASIHKDSGNIPEAIASYRTALKLKPDFPDAYCNLAHCLQIVCDWTDYDERMKKLVSIVADQLEKNRLPSVHPHHSMLYPLSHGFRKAIAERHGNLCLDKINVLHKPPYEHPKDLKLSDGRLRVGYVSSDFGNHPTSHLMQSIPGMHNPDKFEVFCYALSPDDGTNFRVKVMAEANHFIDLSQIPCNGKAADRIHQDGIHILVNMNGYTKGARNELFALRPAPIQAMWLGYPGTSGALFMDYIITDQETSPAEVAEQYSEKLAYMPHTFFIGDHANMFPHLKKKAVIDFKSNGHIYDNRIVLNGIDLKAFLDSLPDVKIVKMKCPDGGDNADSSNTALNMPVIPMNTIAEAVIEMINRGQIQITINGFSISNGLATTQINNKAATGEEVPRTIIVTTRSQYGLPEDAIVYCNFNQLYKIDPSTLQMWANILKRVPNSVLWLLRFPAVGEPNIQQYAQNMGLPQNRIIFSPVAPKEEHVRRGQLADVCLDTPLCNGHTTGMDVLWAGTPMVTMPGETLASRVAASQLTCLGCLELIAKNRQEYEDIAVKLGTDLEYLKKVRGKVWKQRISSPLFNTKQYTMELERLYLQMWEHYAAGNKPDHMIKPVEVTESA
In the case of B2, in test [3], the binding result is “binds”.

B3: O-GlcNAc transferase (OGT) (endogenous, HCT116) (enzyme, UniProt O15294 1-1046)
chain: MASSVGNVADSTEPTKRMLSFQGLAELAHREYQAGDFEAAERHCMQLWRQEPDNTGVLLLLSSIHFQCRRLDRSAHFSTLAIKQNPLLAEAYSNLGNVYKERGQLQEAIEHYRHALRLKPDFIDGYINLAAALVAAGDMEGAVQAYVSALQYNPDLYCVRSDLGNLLKALGRLEEAKACYLKAIETQPNFAVAWSNLGCVFNAQGEIWLAIHHFEKAVTLDPNFLDAYINLGNVLKEARIFDRAVAAYLRALSLSPNHAVVHGNLACVYYEQGLIDLAIDTYRRAIELQPHFPDAYCNLANALKEKGSVAEAEDCYNTALRLCPTHADSLNNLANIKREQGNIEEAVRLYRKALEVFPEFAAAHSNLASVLQQQGKLQEALMHYKEAIRISPTFADAYSNMGNTLKEMQDVQGALQCYTRAIQINPAFADAHSNLASIHKDSGNIPEAIASYRTALKLKPDFPDAYCNLAHCLQIVCDWTDYDERMKKLVSIVADQLEKNRLPSVHPHHSMLYPLSHGFRKAIAERHGNLCLDKINVLHKPPYEHPKDLKLSDGRLRVGYVSSDFGNHPTSHLMQSIPGMHNPDKFEVFCYALSPDDGTNFRVKVMAEANHFIDLSQIPCNGKAADRIHQDGIHILVNMNGYTKGARNELFALRPAPIQAMWLGYPGTSGALFMDYIITDQETSPAEVAEQYSEKLAYMPHTFFIGDHANMFPHLKKKAVIDFKSNGHIYDNRIVLNGIDLKAFLDSLPDVKIVKMKCPDGGDNADSSNTALNMPVIPMNTIAEAVIEMINRGQIQITINGFSISNGLATTQINNKAATGEEVPRTIIVTTRSQYGLPEDAIVYCNFNQLYKIDPSTLQMWANILKRVPNSVLWLLRFPAVGEPNIQQYAQNMGLPQNRIIFSPVAPKEEHVRRGQLADVCLDTPLCNGHTTGMDVLWAGTPMVTMPGETLASRVAASQLTCLGCLELIAKNRQEYEDIAVKLGTDLEYLKKVRGKVWKQRISSPLFNTKQYTMELERLYLQMWEHYAAGNKPDHMIKPVEVTESA
In the case of B3, the binding result in test [4] is given as “binds”.

B4: O-GlcNAcase (OGA) (enzyme, UniProt O60502 1-916)
chain: MVQKESQATLEERESELSSNPAASAGASLEPPAAPAPGEDNPAGAGGAAVAGAAGGARRFLCGVVEGFYGRPWVMEQRKELFRRLQKWELNTYLYAPKDDYKHRMFWREMYSVEEAEQLMTLISAAREYEIEFIYAISPGLDITFSNPKEVSTLKRKLDQVSQFGCRSFALLFDDIDHNMCAADKEVFSSFAHAQVSITNEIYQYLGEPETFLFCPTEYCGTFCYPNVSQSPYLRTVGEKLLPGIEVLWTGPKVVSKEIPVESIEEVSKIIKRAPVIWDNIHANDYDQKRLFLGPYKGRSTELIPRLKGVLTNPNCEFEANYVAIHTLATWYKSNMNGVRKDVVMTDSEDSTVSIQIKLENEGSDEDIETDVLYSPQMALKLALTEWLQEFGVPHQYSSRQVAHSGAKASVVDGTPLVAAPSLNATTVVTTVYQEPIMSQGAALSGEPTTLTKEEEKKQPDEEPMDMVVEKQEETDHKNDNQILSEIVEAKMAEELKPMDTDKESIAESKSPEMSMQEDCISDIAPMQTDEQTNKEQFVPGPNEKPLYTAEPVTLEDLQLLADLFYLPYEHGPKGAQMLREFQWLRANSSVVSVNCKGKDSEKIEEWRSRAAKFEEMCGLVMGMFTRLSNCANRTILYDMYSYVWDIKSIMSMVKSFVQWLGCRSHSSAQFLIGDQEPWAFRGGLAGEFQRLLPIDGANDLFFQPPPLTPTSKVYTIRPYFPKDEASVYKICREMYDDGVGLPFQSQPDLIGDKLVGGLLSLSLDYCFVLEDEDGICGYALGTVDVTPFIKKCKISWIPFMQEKYTKPNGDKELSEAEKIMLSFHEEQEVLPETFLANFPSLIKMDIHKKVTDPSVAKSMMACLLSSLKANGSRGAFCEVRPDDKRILEFYSKLGCFEIAKMEGFPKDVVILGRSL
As for B4, the binding result in test [1] is given as “binds”; in test [5], “binds”; in test [2], “no binding”.
